# Earlier results in patent publication USRE37355E, “6-dimethylaminomethyl-1-phenyl-cyclohexane compounds as pharmaceutical active ingredients” (priority 1995, dated 2001).
# Settings: J. Pharmacol. Exp. Ther. 267, 331 (1993); cited from earlier work
structure (smiles),measurement,value
"COc1cccc([C@@]2(O)CCCC[C@@H]2CN(C)C)c1.Cl (racemic) [Tramadol, (1RS,2RS)-2[(dimethylamino)methyl]-1-(3-methoxyphenyl)cyclohexanol hydrochloride, reference compound]",inhibition of pain,strong inhibitor of pain
